Reference: PubChem BioAssay AID1508588 (Peter MacCallum Cancer Centre, 2020)

Test: 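Which gene losses make BRAF-mutant melanoma cells more responsive to vemurafenib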 (primary screen)
Cells: human WM266.4 melanoma cells (BRAF V600 mutant)
Reagents: siRNA pool against human genes, 40 nM
Timing: 96 h from transfection to read-out
Conditions: vemurafenib 300 nM (about IC25), added 48 h after transfection, for 48 h; comparison arm got DMSO vehicle only
Read-out: 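Ratios to non-targeting siRNA for cell gain, counted as DAPI nuclei after minus before drug and averaged over two replicates, and for absorbance-read medium lactate per cell; both binned into fold-change classes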
Reading the numbers: cell gain with vemurafenib: higher = more cell gain than with non-targeting siRNA; lactate per cell with vemurafenib: higher = more lactate made per cell
Active means: 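Enhancement is called by pairing each knock-down's vehicle-arm and drug-arm fold-change classes for viability or glycolysis; which class combinations qualify is not given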
Meaning of the calls: active = enhances vemurafenib effect; inactive = no enhancement seen
The deposit covers about 18,000 reagents; below is a random part of them. In the full data, 790 (4.4%) were called active. 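Calls rest on a combination of fold-change classes in drug and vehicle arms, not all shown here.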 A reagent listed more than once was tested more than once; the source does not tell the runs apart.

target gene	cell gain with vemurafenib	lactate per cell with vemurafenib	Outcome
PPP4R3B	1.17	1	inactive
GNG12	0.29	1.87	inactive
MDFIC	0.75	0.86	inactive
FADS2	0.67	0.62	inactive
SLC24A2	0.55	1.32	inactive
PEAK3	0.16	2.43	inactive
PCDHGB5	0.64	0.76	inactive
TMEM25	0.59	0.32	inactive
RB1CC1	0.32	0.51	inactive
MT1B	0.7	0.78	inactive
RFX1	0.3	1.52	inactive
CGRRF1	0.78	0.74	inactive
UQCRFS1	1.27	1.5	inactive
REXO2	0.89	0.48	inactive
ADCY4	0.77	0.9	inactive
DHH	0.67	0.47	active
C1orf216	1.41	0.57	inactive
CPNE3	0.69	0.66	inactive
KIFBP	0.44	0.92	inactive
FANCE	0.5	1.84	inactive
EIF4A2	0.5	0.94	inactive
LINC01973	0.68	1.2	inactive
CSH2	0.9	0.96	inactive
ERF	0.56	0.9	inactive
DCLK1	0.57	1.35	inactive
PLAC4	0.45	1.76	inactive
DYM	0.62	0.48	active
DGLUCY	0.39	0.85	inactive
RBP3	0.51	1.34	inactive
PNKD	-0.06	1.54	inactive
XPO5	0.8	0.47	inactive
CLDN1	0.21	1.18	inactive
HSH2D	0.6	0.84	inactive
STARD3NL	1.04	0.84	inactive
ACOX2	0.35	1.04	inactive
NTSR1	0.55	0.66	inactive
FMC1	0.49	1.02	inactive
COL9A1	0.89	1.16	inactive
CDH24	0.16	1.8	inactive
NUDT4	0.81	0.29	inactive
MMAA	0.54	1.04	inactive
DNMT3L	0.88	0.62	inactive
TNFSF13	1.09	0.64	inactive
DAPK3	0.65	0.87	inactive
RPS29	-0.16	0.36	inactive
CDR2	0.3	2.37	inactive
TRIAP1	1.05	1.16	inactive
CLSPN	0.02	2.41	inactive
AFF2	0.85	1.1	inactive
DLK1	0.36	1.01	inactive
LCK	0.83	0.61	inactive
LCK	0.59	0.64	inactive
CHCHD2	1.08	0.56	inactive
CARF	0.64	0.78	inactive
GCN1	0.63	1.12	inactive
ENPP7	0.82	2.1	inactive
MTRFR	0.8	1.06	inactive
HDIP1	0.68	1.25	inactive
C1orf174	0.66	1.08	inactive
OLAH	0.53	1.6	inactive
TSC22D1	0.52	0.88	inactive
CD274	-0.09	1.26	inactive
NCR2	0.92	0.8	inactive
AGL	0.36	1.4	inactive
DEFB126	0.12	2.28	inactive
ZFAND3	0.13	0.84	inactive
KCNC2	0.71	1.29	inactive
DZIP1L	0.49	0.7	inactive
MMD2	0.88	0.79	inactive
ZNF212	0.6	1.31	inactive
SLC22A12	0.88	0.83	inactive
CPNE1	0.46	0.23	active
DIPK2A	0.91	0.53	inactive
CRYGC	0.61	1.03	inactive
NPR1	0.68	0.43	inactive
AMBRA1	0.24	1.9	inactive
KIF20A	0.07	1.17	inactive
FMR1NB	0.66	0.6	inactive
COL23A1	0.35	0.64	active
POU6F2	0.52	1.46	inactive
OR2T4	0.91	0.5	inactive
TBC1D22A	0.66	1.3	inactive
ARHGDIG	0.89	1.54	inactive
DNAH6	0.54	1.65	inactive

Laid out differently: 13 of the entries above
| target gene | cell gain with vemurafenib | lactate per cell with vemurafenib | Outcome |
| --- | --- | --- | --- |
| CLDN1 | 0.21 | 1.18 | inactive |
| HSH2D | 0.6 | 0.84 | inactive |
| STARD3NL | 1.04 | 0.84 | inactive |
| ACOX2 | 0.35 | 1.04 | inactive |
| NTSR1 | 0.55 | 0.66 | inactive |
| FMC1 | 0.49 | 1.02 | inactive |
| COL9A1 | 0.89 | 1.16 | inactive |
| CDH24 | 0.16 | 1.8 | inactive |
| NUDT4 | 0.81 | 0.29 | inactive |
| MMAA | 0.54 | 1.04 | inactive |
| DNMT3L | 0.88 | 0.62 | inactive |
| TNFSF13 | 1.09 | 0.64 | inactive |
| DAPK3 | 0.65 | 0.87 | inactive |
